Experimental data from US7736909B2, “Methods and compositions comprising capture agents” (Board of Regents, the University of Texas System, priority 2003, dated 2010).
Values joined by “and” are separate entries in the source; they are usually repeats but may differ in a detail not shown here. Identical values can stand only once. Like-named read-outs stand apart in the source and are kept apart here. At least one peptide structure holds a part that was inferred or is arguable (an end, a ring closure or a residue). Residues, ends and D or L forms follow the SMILES beside them.

By UniProt entry, the sequences of proteins in these tests, tags left out. Residues count along the entry.
UniProt P45481, 378-817: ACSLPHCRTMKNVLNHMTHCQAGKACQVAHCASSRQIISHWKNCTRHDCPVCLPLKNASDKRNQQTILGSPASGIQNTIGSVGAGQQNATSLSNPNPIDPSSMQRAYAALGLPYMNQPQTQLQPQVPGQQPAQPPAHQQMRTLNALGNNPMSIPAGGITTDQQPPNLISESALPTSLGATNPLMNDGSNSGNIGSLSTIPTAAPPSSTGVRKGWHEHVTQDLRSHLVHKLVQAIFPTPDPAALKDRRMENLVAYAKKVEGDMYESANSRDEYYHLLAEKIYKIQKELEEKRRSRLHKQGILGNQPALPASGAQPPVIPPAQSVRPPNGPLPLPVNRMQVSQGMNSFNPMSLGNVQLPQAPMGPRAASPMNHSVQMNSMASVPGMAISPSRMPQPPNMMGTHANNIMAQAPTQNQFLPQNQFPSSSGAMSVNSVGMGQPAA

Assays:
ubiquitin [1] = target: T1, ubiquitin (Homo sapiens, UniProt P0CG47); test: isothermal titration calorimetry (ITC); format: binding
ubiquitin [2] = target: T1, ubiquitin; test: pull-down of unlabeled ubiquitin by Tentagel-displayed peptide, probed with Texas Red-labeled anti-ubiquitin antibody; format: binding; settings: for binding of ubiquitin by immobilized peptide: 1000-fold excess E. coli proteins
Description: To study the behavior of the ubiquitin-targeted chimeric binding element in capture assays, the peptide was synthesized on Tentagel and employed in “pull-down” assays. Beads displaying NH2-[…], a control peptide NH2-[…], or no peptide at all, were incubated with the indicated concentration of unlabeled ubiquitin in the presence of a 1000-fold excess of E. coli proteins (FIG. 26B). After thorough washing, the beads were then probed with Texas Red-labeled anti-ubiquitin-labeled polyclonal antibodies to visualize the bound protein. […] In all cases, the level of fluorescence from the chimeric binding element-displaying beads was much higher than from either set of control beads (see FIG. 26C for a direct comparison).

GST-KIX or His6-KIX = target: T2, GST-KIX or His6-KIX (Mus musculus, UniProt P45481); test: monomeric versus dimeric protein dissociation from peptide on Tentagel; format: binding
T2 construct: A fragment of CBP including the KIX domain, amino acids 378-817, was amplified by PCR; His6 (His6-KIX, pRSET-A) or GST (GST-KIX, pGEX-2T): two separate fusion proteins (N); made in house; host or cells: E. coli

[3] = target: KIX domain of Creb Binding Protein (His6-KIX, GST-KIX) (Mus musculus, UniProt P45481); test: solution binding constants by fluorescence polarization titration; settings: read-out: KD of the peptide/protein complex, in solution, monomeric His6-KIX or dimeric GST-KIX

CC(C)C[C@H](NC(=O)CNC(=O)[C@@H](N)Cc1c[nH]c2ccccc12)C(=O)N[C@@H](CCCNC(=N)N)C(=O)N[C@@H](C)C(=O)N[C@@H](CC(C)C)C(=O)N[C@@H](CCC(=O)O)C(=O)N[C@@H](CO)C(=O)N[C@@H](CCCNC(=N)N)C(=O)N[C@@H](Cc1c[nH]c2ccccc12)C(=O)N[C@@H](CC(=O)O)C(=O)N[C@@H](CCCNC(=N)N)C(=O)N[C@@H](Cc1ccc(O)cc1)C(=O)N[C@@H](Cc1ccc(O)cc1)C(=O)N[C@@H](Cc1ccccc1)C(=O)O (H-WGLRALESRWDRYYF-OH; C-terminus assumed)
Kd (ubiquitin [1]; in solution, read-out: KD of peptide/ubiquitin complex, ITC): 12 µM and ~12 µM
improvement in solution over the lead peptide (ubiquitin [1]; solution): ≈ 3 fold
binding of ubiquitin by immobilized peptide (ubiquitin [2]; 0.8 nM ubiquitin): easily detectable
binding of ubiquitin by immobilized peptide (ubiquitin [2]; 4 nM ubiquitin): very strong
ubiquitin concentration of efficient capture (ubiquitin [2]; immobilized): ≤ 1 nM

CC(C)[C@H](NC(=O)[C@H](C)NC(=O)[C@H](CO)NC(=O)[C@H](Cc1c[nH]c2ccccc12)NC(=O)[C@H](Cc1ccccc1)NC(=O)[C@H](CCC(=O)O)NC(=O)[C@H](Cc1ccccc1)NC(=O)[C@H](Cc1c[nH]c2ccccc12)NC(=O)[C@H](CO)NC(=O)[C@@H](NC(=O)[C@H](CO)NC(=O)CNC(=O)[C@@H]1CCCN1C(=O)[C@@H](NC(=O)[C@@H](N)CO)C(C)C)C(C)C)C(=O)N[C@@H](CC(=O)O)C(=O)N[C@@H](C)C(=O)N[C@H](C(=O)N[C@@H](CCC(=O)O)C(=O)N[C@H](C(=O)O)[C@@H](C)O)C(C)C [KIXbp1] (H-SVPGSVSWFEFWSAVDAVET-OH; N-terminus and C-terminus assumed)
protein remaining on the beads immediately after washing (GST-KIX or His6-KIX; dimeric GST-KIX): present
protein remaining on the beads immediately after washing (GST-KIX or His6-KIX; monomeric His6-KIX): undetectable
Kd [3]: ~8 µM
Kd ([3]; listed as KIXBP1): 8 µM
